End groups of sequences in plain letters are not given here.
Assay: general procedure: Fmoc solid-phase peptide synthesis; RAPP AM-Rink Amide resin (H40023 Polystyrene AM RAM, Rapp polymere GmbH); DIC/Oxyma pure; PyBOP/DIEA for side-chain extension
Conditions: whole synthesis

Sequence: IVLSLDVPIGLLQILLEQEKQEKEKQQAKTNAQILAQV
- final HPLC purity (analytical reversed-phase HPLC): >99%
- isolated yield (purified yield): 15-20%

Reference: US10894817B2 (priority 2016, dated 2021)
